Source: PMC4974476, “Structural basis for LIN54 recognition of CHR elements in cell cycle-regulated promoters”
Results are given in words; binding and its absence hold for the method and conditions named. In cells and extracts the contact can be indirect. Some entries that bind do so weakly or less than the wild type.

Protein sequences, listed by entry. Tags and fused reporters are not part of them.
UniProt Q6MZP7: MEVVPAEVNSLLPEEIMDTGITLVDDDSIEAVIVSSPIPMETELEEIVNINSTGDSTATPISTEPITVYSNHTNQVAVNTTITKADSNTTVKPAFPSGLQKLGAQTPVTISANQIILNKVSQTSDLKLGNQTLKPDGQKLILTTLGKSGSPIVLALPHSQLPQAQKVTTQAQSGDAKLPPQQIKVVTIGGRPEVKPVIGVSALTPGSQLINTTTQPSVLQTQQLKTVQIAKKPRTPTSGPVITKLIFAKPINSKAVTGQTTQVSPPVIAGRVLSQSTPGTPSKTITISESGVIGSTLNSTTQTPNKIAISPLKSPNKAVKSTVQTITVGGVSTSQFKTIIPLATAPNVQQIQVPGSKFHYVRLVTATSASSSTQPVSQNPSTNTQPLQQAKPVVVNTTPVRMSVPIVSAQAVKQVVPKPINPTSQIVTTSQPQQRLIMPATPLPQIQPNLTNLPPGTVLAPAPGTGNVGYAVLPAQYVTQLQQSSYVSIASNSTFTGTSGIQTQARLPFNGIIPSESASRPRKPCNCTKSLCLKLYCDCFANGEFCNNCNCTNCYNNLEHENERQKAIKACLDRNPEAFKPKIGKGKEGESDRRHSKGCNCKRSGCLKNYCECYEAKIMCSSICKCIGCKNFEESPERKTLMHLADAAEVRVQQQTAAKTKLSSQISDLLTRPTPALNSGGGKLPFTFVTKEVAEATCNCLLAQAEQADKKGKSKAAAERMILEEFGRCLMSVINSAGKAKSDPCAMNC
UniProt P10244: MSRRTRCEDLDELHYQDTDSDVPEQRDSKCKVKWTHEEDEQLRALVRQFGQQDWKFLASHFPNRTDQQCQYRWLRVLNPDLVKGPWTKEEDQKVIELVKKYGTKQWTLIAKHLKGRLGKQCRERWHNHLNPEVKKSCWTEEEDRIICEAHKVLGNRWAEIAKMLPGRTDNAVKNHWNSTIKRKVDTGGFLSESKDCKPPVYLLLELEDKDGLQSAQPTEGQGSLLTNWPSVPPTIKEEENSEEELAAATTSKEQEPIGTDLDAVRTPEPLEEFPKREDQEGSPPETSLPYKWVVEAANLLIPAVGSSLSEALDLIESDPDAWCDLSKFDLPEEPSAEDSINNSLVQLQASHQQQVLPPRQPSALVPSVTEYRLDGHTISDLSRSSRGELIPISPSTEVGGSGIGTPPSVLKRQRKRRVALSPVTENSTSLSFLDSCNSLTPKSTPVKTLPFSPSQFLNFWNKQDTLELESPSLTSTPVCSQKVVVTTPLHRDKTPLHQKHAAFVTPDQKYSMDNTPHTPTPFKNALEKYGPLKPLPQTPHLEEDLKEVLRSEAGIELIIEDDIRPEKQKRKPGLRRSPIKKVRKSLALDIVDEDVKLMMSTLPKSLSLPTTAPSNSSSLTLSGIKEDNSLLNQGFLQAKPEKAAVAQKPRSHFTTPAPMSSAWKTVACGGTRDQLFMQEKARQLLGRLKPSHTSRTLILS
UniProt Q96GY3: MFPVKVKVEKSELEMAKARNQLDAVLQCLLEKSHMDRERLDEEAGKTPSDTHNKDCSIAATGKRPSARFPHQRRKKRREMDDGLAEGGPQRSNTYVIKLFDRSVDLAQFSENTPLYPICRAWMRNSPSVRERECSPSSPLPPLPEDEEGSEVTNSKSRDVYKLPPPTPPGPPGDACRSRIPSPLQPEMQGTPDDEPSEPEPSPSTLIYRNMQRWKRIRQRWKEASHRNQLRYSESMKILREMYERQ
UniProt Q5TKA1: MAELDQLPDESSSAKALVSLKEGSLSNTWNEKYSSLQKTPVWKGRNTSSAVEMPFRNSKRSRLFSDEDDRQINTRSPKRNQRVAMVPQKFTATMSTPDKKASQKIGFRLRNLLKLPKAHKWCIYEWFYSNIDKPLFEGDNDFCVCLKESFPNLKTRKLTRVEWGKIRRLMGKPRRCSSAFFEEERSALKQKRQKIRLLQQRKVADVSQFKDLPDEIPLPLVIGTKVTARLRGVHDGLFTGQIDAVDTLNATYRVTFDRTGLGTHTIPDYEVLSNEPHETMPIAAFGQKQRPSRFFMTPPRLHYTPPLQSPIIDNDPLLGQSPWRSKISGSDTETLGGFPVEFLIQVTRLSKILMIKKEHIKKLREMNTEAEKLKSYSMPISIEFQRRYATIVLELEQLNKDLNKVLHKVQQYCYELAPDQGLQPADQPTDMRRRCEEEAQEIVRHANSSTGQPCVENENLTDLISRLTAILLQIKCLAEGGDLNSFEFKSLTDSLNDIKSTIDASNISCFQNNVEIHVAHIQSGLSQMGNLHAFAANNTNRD

Molecular target: V5-tagged wild-type LIN54 (human) (UniProt Q6MZP7)
Test: co-IP; T98G cells co-transfected with V5-LIN54 (wild type or mutant) and HA-p130; extracts in EBC lysis buffer (50 mM Tris HCl pH 7.4, 150 mM NaCl, 0.5% NP-40); immunoprecipitated with anti-V5 antibody; western blot for LIN9, LIN37, Myb, V5 and HA

| Substance | binding |
| --- | --- |
| B-Myb (Myb) transcription factor (from UniProt P10244 1-700) | binds |
| LIN37 (from UniProt Q96GY3 1-246) | binds |
| LIN9 (from UniProt Q5TKA1 1-542) | binds |
